Assay results as given in publication doi:10.1101/2020.05.06.080432.

Molecular target: T1, Strep-GlnA1 (Methanosarcina mazei) (UniProt Q8PY99)
T1 sequence: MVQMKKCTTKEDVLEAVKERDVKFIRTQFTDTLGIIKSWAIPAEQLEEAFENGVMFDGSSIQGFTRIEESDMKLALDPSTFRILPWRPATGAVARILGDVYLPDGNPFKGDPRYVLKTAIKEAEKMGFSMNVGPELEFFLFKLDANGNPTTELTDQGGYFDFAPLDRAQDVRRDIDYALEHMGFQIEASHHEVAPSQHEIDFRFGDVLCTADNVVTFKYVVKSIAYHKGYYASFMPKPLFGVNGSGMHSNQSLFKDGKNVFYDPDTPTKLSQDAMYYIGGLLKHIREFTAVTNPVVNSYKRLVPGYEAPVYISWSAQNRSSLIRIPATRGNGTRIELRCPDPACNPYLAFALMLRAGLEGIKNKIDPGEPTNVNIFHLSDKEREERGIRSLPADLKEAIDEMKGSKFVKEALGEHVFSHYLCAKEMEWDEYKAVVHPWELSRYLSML
Assay: pull-down

binding: binds
Substance: His6-SUMO-His6-sP26 (Methanosarcina mazei)

These are yes or no findings as the source states them, for the method shown. In cells and extracts the contact can be indirect. A result given as binding can be weak or reduced; the word gives no strength.
